The subject of this series is PCBP2 endogenous + SYNCRIP (hnRNPQ) endogenous. Nature of the series: EMSA ultrashift. Particulars: both antibodies; EMSA: REMSA binding buffer (LightShift kit), 4 ug extract, 0.5 pmol biotin-RNA, 30 min room temperature, native 6% PAGE 0.5x TBE; protein in an extract; label: 5' biotin. (In general: In EMSA bound probe runs differently from free probe, usually more slowly.)

The exact form of at least one protein or probe is not confirmed. At least one result comes from cells or an extract, where the contact may be indirect.

The text below walks through data of paper PMC12221297.

For the sequence “CUCCUACCUGUUAGCAUUAAC [miR-155-3p WT (Table 1: miR-155b-3p WT)]”, the binding result is given as “binds”.
